Data published in publication PMC10857571.
Results are given in words; binding and its absence hold for the method and conditions named. Binding seen in cells or lysates may run through a third protein. Some binding calls cover weakened binding; strength is not graded here.

By UniProt entry, the sequences of proteins in these tests, tags left out. Residues count along the entry.
UniProt P25963: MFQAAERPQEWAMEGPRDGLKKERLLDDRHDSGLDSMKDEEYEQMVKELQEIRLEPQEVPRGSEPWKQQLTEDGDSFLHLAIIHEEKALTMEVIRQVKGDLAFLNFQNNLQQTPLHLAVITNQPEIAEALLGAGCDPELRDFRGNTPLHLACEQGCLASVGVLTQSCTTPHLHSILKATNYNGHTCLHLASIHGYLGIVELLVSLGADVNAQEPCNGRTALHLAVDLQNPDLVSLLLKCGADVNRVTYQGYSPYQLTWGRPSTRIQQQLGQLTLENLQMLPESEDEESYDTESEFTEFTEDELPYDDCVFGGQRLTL
UniProt Q04206: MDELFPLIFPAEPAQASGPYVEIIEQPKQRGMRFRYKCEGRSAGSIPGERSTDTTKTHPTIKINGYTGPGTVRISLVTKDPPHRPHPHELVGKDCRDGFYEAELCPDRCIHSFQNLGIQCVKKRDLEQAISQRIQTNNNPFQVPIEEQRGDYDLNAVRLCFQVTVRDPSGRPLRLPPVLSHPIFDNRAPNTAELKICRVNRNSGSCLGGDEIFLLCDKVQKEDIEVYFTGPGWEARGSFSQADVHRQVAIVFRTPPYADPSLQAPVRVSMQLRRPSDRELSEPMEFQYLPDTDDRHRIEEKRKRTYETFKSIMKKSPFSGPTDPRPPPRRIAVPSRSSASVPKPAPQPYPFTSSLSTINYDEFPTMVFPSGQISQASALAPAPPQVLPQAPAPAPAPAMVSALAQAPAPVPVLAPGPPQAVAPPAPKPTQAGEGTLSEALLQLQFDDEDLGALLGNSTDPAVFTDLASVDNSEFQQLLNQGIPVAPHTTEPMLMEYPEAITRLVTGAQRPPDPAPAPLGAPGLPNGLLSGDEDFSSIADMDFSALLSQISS
UniProt P19838, residues 1-433: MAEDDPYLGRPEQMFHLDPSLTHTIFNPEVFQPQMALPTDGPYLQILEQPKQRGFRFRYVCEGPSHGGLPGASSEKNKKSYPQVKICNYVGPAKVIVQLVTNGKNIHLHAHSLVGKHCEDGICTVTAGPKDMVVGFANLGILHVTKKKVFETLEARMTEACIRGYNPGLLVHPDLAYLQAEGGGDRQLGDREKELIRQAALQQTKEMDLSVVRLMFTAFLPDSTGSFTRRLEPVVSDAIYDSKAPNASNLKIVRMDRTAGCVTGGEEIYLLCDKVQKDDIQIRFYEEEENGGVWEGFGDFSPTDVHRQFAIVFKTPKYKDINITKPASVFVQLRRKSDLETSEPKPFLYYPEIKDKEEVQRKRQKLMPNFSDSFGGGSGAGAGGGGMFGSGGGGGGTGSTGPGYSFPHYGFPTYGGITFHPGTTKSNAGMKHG

Key:
[1] = molecular target: IκBα (human (endogenous in THP-1)) (UniProt P25963); experiment: co-IP; endogenous proteins in THP-1 cell lysates (100 μg protein), 2 μg antibody, TENDS buffer (20 mM Tris HCl pH 8.0, 1 mM EDTA, 2 mM DTT, 0.25 M sucrose), 4°C, protein A/G-agarose, immunoblot; cells exposed to vehicle, olaparib, oxLDL (100 μg/mL, 24 hr) or oxLDL with olaparib; normal rabbit IgG as control
[2] = molecular target: RelA (p65) (human (endogenous in THP-1)) (UniProt Q04206); experiment: as above

binding [1]: binds
binding [2]: binds
Substance: NF-κB1 p50 (from UniProt P19838 1-433)
